Library screening results

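Viability assay of Plasmodium falciparum sporozoites; the read-out is not stated. The concentration is filed as 10 mM, unlikely as a test dose, so the dose is not known. Direction is inferred from retests: higher values go with lower viability. Strong results were mostly tested again. Size under these conditions: about 34,000 compounds, about 280 of them at 50% or above in at least one test.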

Results are given as percent effect.
How 0% and 100% were set is not recorded. Most values in the screen are low, and negative values occur.
Compounds were drawn at random from those tested, without regard to their results.
Two or more numbers in one place are separate tests of the same structure; such repeats can differ widely.

{"compound": "C[S+]([O-])CCNCc1ccc(OCc2cscn2)cc1", "stereo": "centres undefined", "effect": 1.954}
{"compound": "CC(CCCC(C)(C)O)Nc1ccc(-c2nccn2C)nn1", "stereo": "centres undefined", "effect": "-13.36 and -5.051"}
{"compound": "Cc1cnn(CC2CCCN2CC(=O)Nc2cc(C(C)(C)C)no2)c1", "stereo": "centres undefined", "effect": -1.6}
{"compound": "CC(C)Nc1ncnc2c1CCN(C(=O)Cc1cccs1)CC2", "effect": -8.442}
{"compound": "CC(C)(C)c1cc(NC(=O)CN2CCn3c(nnc3C3CC3)C2)on1", "effect": 2.218}
{"compound": "Cc1cc(CN2CCCC2c2c(C)nn(C)c2Cl)no1", "stereo": "centres undefined", "effect": -2.2}
{"compound": "CCC(C)(C)NC(=O)c1ccc(NC(=O)NCc2cc(C)on2)cc1", "effect": -13.72}
{"compound": "[H][C@@]12CCCO[C@]1([H])[C@H](NC(=O)CC1CC1)CN(C(=O)c1cccs1)C2", "effect": -4.378}
{"compound": "Cc1[nH]ncc1C(=O)N1CCCC(n2cncn2)C1", "stereo": "centres undefined", "effect": -12.89}
{"compound": "CN1CC(=O)N(c2cnn(C)c2)CC12CCN(Cc1ccccc1)C2.O=C(O)C(F)(F)F.O=C(O)C(F)(F)F", "stereo": "centres undefined", "effect": -10.01}
{"compound": "CC(C)OCCC(=O)N1CCN(CC(O)c2ccccc2)CC1", "stereo": "centres undefined", "effect": 3.52}
{"compound": "O=C(C(CNCc1ccncc1)c1ccccc1)N1CCOCC1", "stereo": "centres undefined", "effect": -0.6543}
{"compound": "Cc1ncsc1CCCNC(=O)C1CC2(CCNCC2)CN1C", "stereo": "centres undefined", "effect": -12.49}
{"compound": "Cc1c(C(=O)O)cnn1-c1ccc(-c2nc(C(C)C)no2)cn1", "effect": "-4.625 and 0.1546"}
{"compound": "O=C(O)C(F)(F)F.[H][C@@]12CCN(C3CCCC3)C[C@]1([H])OCCN(Cc1ccc(OC)cc1)C2=O", "effect": 7.638}
{"compound": "O=C(c1ccncc1)N1CCC2(CC1)CC(Oc1cccnc1)CO2", "stereo": "centres undefined", "effect": 0.783}
{"compound": "COc1c(C2CCCN2C(=O)c2cnc(C)cn2)c(C)nn1C", "stereo": "centres undefined", "effect": 5.595}
{"compound": "COCCC(=O)N1CC[C@@H](N2CCOCC2)[C@@H]1Cc1ccccc1.O=C(O)C(F)(F)F", "effect": -17.27}
{"compound": "O=C(O)C1CN(c2cncc(Cc3ccccc3)n2)C1", "effect": 2.462}
{"compound": "CCn1cc(NC(=O)NCCN2CCCCCC2=O)cn1", "effect": -4.585}
{"compound": "CNS(=O)(=O)Cc1ccc(CNC(=O)c2cccc(C)n2)cc1", "effect": 0.3271}
{"compound": "COc1c(C2CCCN2C(=O)c2cc(C)on2)c(C)nn1C", "stereo": "centres undefined", "effect": -1.627}
{"compound": "O=C(O)C(F)(F)F.[H][C@]12CCC[C@@]1(COCc1cccnc1)CN(C(=O)c1ocnc1C)C2", "effect": -24.88}
{"compound": "CN(CC(F)(F)F)C(=O)C1CSCN1C(=O)OC(C)(C)C", "stereo": "centres undefined", "effect": 9.799}
{"compound": "Fc1cccc(-c2nccnc2C2CCCNC2)c1", "stereo": "centres undefined", "effect": -5.266}
{"compound": "O=C(O)C(F)(F)F.O=C1CCCN1Cc1nnc2n1CCN(Cc1ccco1)CC2", "effect": 3.64}
{"compound": "O=C(O)C(F)(F)F.O=C(O)C(F)(F)F.c1cncc(CN2Cc3nccn3CC(Cn3cccn3)C2)c1", "stereo": "centres undefined", "effect": 7.005}
{"compound": "CC(Cc1ccccc1Cl)NC(=O)Nc1cnn(CC(N)=O)c1", "stereo": "centres undefined", "effect": 1.413}
{"compound": "COCCC(=O)N1CCCC1c1nccnc1Nc1ncccn1", "stereo": "centres undefined", "effect": 6.025}
{"compound": "CCCN(CC)c1ccc(C(=O)N2CCCC2c2cnn(C)c2)cn1", "stereo": "centres undefined", "effect": 0.3108}
{"compound": "CCn1cnnc1C1CCN(C(=O)COc2ccc(Cl)cc2)CC1", "effect": "6.496 and -1.262 and -2.237"}
{"compound": "CN(CCOc1cccc(CN)c1)C1CCOCC1", "effect": -1.765}
{"compound": "CC(C)c1nc(C(=O)NCCn2ccnc2)nn1-c1cccc(F)c1", "effect": -3.341}
{"compound": "COCCCN1CCc2cncnc2C1", "effect": 6.99}
{"compound": "COc1c(C)cnc(CN(C)C(=O)c2ccccn2)c1C", "effect": 0}
{"compound": "CCN(CC1CN(Cc2ncc[nH]2)CCO1)c1cccnn1", "stereo": "centres undefined", "effect": -3.004}
{"compound": "CCN(Cc1cccc(C)c1)Cn1nc(C)c2c(C)onc2c1=O", "effect": 0.1621}
{"compound": "CC1CN(C)CCN1Cc1cccc(C(=O)NCc2ccco2)c1", "stereo": "centres undefined", "effect": 2.743}
{"compound": "CCN1CCC(NC(=O)CN2CCCC2Cn2nc(C)cc2C)CC1", "stereo": "centres undefined", "effect": "-2.56 and 10.37 and 68.6"}
{"compound": "[H][C@]12CCN(c3cc(OC)ncn3)[C@@]1([H])C[C@@H](C(=O)NCC1CC1)O2", "effect": 18.04}
{"compound": "CN1CCC(NC(=O)Nc2ccc(F)c(Br)c2)C1=O", "stereo": "centres undefined", "effect": 7.282}
{"compound": "Cc1nc(C)n(C2CCCN(C(=O)c3csnn3)C2)n1", "stereo": "centres undefined", "effect": 1.12}
{"compound": "Cc1csc(C2CCCCN2C(=O)CN(C)C2CC2)n1", "stereo": "centres undefined", "effect": -17.66}
{"compound": "Cc1ccc(NC(=O)CSCc2cccnc2)nc1", "effect": "-29.55 and -38.68"}
{"compound": "COc1c(NS(=O)(=O)c2ccc(C)c(C)c2)c(C)nn1C", "effect": -4.379}
{"compound": "Cc1nnc(NC(=O)NCc2ccc(C)n2C)s1", "effect": 14.13}
{"compound": "Cc1cccc2c1OCCC2NCc1c(C)nn(C)c1N(C)C", "stereo": "centres undefined", "effect": 17.97}
{"compound": "O=C(c1cnccn1)N1CCCC(Cc2ccccn2)C1", "stereo": "centres undefined", "effect": 6.761}

4 of the entries, repeated:

| Compound | effect |
|---|---|
| `O=C(O)C(F)(F)F.[H][C@]12CCC[C@@]1(COCc1cccnc1)CN(C(=O)c1ocnc1C)C2` | -24.88 |
| `Cc1ncsc1CCCNC(=O)C1CC2(CCNCC2)CN1C` (centres undefined) | -12.49 |
| `CCn1cc(NC(=O)NCCN2CCCCCC2=O)cn1` | -4.585 |
| `[H][C@@]12CCCO[C@]1([H])[C@H](NC(=O)CC1CC1)CN(C(=O)c1cccs1)C2` | -4.378 |

The values are deposited in ChEMBL (CHEMBL3988442, “University of Dundee, Small-Polar-MMV Screening Library” (2021)).